In this assay the target is T1, NH2-terminally 6His-tagged recombinant rat persephin (rat) (UniProt O70301).
T1 sequence: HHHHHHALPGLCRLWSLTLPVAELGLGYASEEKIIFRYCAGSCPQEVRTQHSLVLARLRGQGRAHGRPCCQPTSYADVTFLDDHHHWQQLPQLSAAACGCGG
The assay is described as follows: SPR (BIACORE 3000), PSP immobilised.

No constants are given. Whether binding was seen depends on the method and setting. Some entries that bind do so weakly or less than the wild type. Tags and fused reporters may be left off the sequences shown.

B1: rat GFRα-4 variant A-IgGFc fusion protein (Fc fusion)
chain: ASSTEGNRCVEAAEACTADEQCQQLRSEYVAQCLGRAGWRGPGSCVRSRCRRALRRFFARGPPALTHALLFCGCEGPACAERRRQTFAPACAFSGPQLAPPSCLKPLDRCERSRRCRPRLFAFQASCAPAPGSRDGCPEEGGPRCLRAYAGLVGTVVTPNYLDNVSARVAPWCGCEASGNRREECEAFRKLFTRNPCLDGAIQAFDSSQPSVLQDQWNPYQNAG
notes: also called rat GFRα-4-IgGFc; rat GFRα4-IgGFc; not shown: The 243-residue COOH-terminal human IgG1-Fc fusion domain from the vector Signal pIg plus (R&D Systems)
As to B1, the binding entry is “binds”.

For the origin of these results see patent publication US7022818 (Janssen / Centocor, dated 2006).
